These results are taken from PubChem BioAssay AID493014 (National Center for Advancing Translational Sciences (NCATS), 2011).

The nature of this assay: qHTS Assay to Find Inhibitors of Chronic Active B-Cell Receptor Signaling. Conditions: ABC-DLBCL IkBa-CBG/CBR reporter, luminescence ratio (green luciferase fused to IkBa over red control in TMD8 lymphoma cells), 4 h. The method in brief: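 Doxycycline induced both beetle luciferases in TMD8 lymphoma cells; IKK-driven degradation limits the IkappaBalpha-fused green signal, while red luminescence normalises for cell number and nonspecific effects. Compounds tested up to 46 uM, 4 hrs.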

Where [1] appears, read: measured here: CBR red luminescence, cell number.
The mark [2] stands for this setting: measured here: IkBa-CBG green luminescence.

Molecules are shown by their SMILES. Some of the results follow. The main result of the screen is listed elsewhere. These columns were measured beside it and carry no call. Most of these compounds were active or inconclusive in the main read-out, so they are no random draw. Potencies come from curve fits of mixed quality, noted in brackets.

As a reminder, the AC50 is the midpoint of the concentration-response curve, whichever way the signal moves. For the compound `CCc1nnc(NC(=O)c2ccc(-c3ccccc3Cl)o2)s1`, the AC50 under setting [1] was 1.84 µM [rising, full curve, poor fit].

Take `O=C(Cc1ccc(Cl)c(Cl)c1)Nc1cccc2ncccc12`: the AC50 under setting [1] was 22.4 µM [falling, single point].

On to `C/C(Cn1cnc([N+](=O)[O-])n1)=N\NC(=O)c1ccc(O)cc1O`, for which the AC50 under setting [1] is 1.41 µM [falling, full curve, poor fit].

Consider `CC1Sc2ccc(S(=O)(=O)CCC(=O)NCc3ccc(Cl)cc3)cc2NC1=O` (stereo not given), for which the half-maximal activity concentration (AC50) under setting [1] was 7.94 µM [falling, partial curve, poor fit].

In the case of `CCCCNC(=O)c1sc2nc(C)cc(COC)c2c1-n1cccc1`, under setting [1], the AC50 is 0.316 µM [falling, full curve, poor fit].

In the case of `C/C(=N\OCc1ccc(C#N)cc1)c1cc2ccccc2o1`, under setting [1], the AC50 was 7.08 µM [rising, partial curve].

As to `CC(C)Oc1ccc(S(=O)(=O)N2CCOCC2)cc1NC(=O)CN1C(=O)NC2(CCCC2)C1=O`, the AC50 under setting [1] was 2.82 µM [rising, partial curve, poor fit].

In the case of `Cc1nnsc1-c1onc(C)c1C(=O)Nc1cc(Cl)cc(Cl)c1`, under setting [1], the half-maximal activity concentration (AC50) was 35.5 µM [falling, partial curve, poor fit].

For the compound `COc1ccc(NC(=O)CSC2=Nc3ccccc3C3=NC(CCC(=O)NCCc4ccccc4)C(=O)N23)cc1` (stereo not given), the AC50 under setting [1] was 6.31 µM [rising, partial curve, poor fit].

Turning to `O=C(COc1ccccc1)Nn1cnc2ccccc21`, the AC50 under setting [1] was 20 µM [falling, partial curve, poor fit].

As to `Cn1cccc1C(=S)N1CCOCC1`, the AC50 under setting [1] was 2.31 µM [rising, partial curve].

Consider `COC(=O)c1ccc(CSc2nnc(C)s2)cc1`, for which, under setting [1], the AC50 is 3.98 µM [rising, partial curve].

On to `CC(C)C[C@H]1CN=C(Nc2ccccc2)N1CCCCc1ccccc1`, for which the AC50 under setting [1] was 35.5 µM [falling, single point].

On to `N/C(=N\OC(=O)CC1CCCCC1)c1ccccn1`, for which, under setting [1], the AC50 was 17.8 µM [falling, partial curve].

Take `CCN(CC)c1ccc(/C=N/N2CC(=O)NC2=S)cc1`: the AC50 under setting [1] is 0.92 µM [rising, full curve, poor fit].

As for `O=C(NC1CC1)C1CCC(=O)N1C1CCCC1` (stereo not given), under setting [1], the AC50 is 1.16 µM [falling, full curve, poor fit].

Regarding `COc1ccc(S(=O)(=O)N2CCOC2CNC(=O)C(=O)NCC(C)C)cc1OC` (stereo not given), the AC50 under setting [1] was 28.2 µM [falling, single point].

For the compound `O=C(NCCc1cccs1)c1ccc(CS(=O)Cc2ccc(Cl)cc2)o1` (stereo not given), under setting [1], the concentration at half-maximal activity (AC50) was 3.55 µM [falling, partial curve, poor fit].

With `CCc1sc(C(=O)Nc2cc(Cl)ccc2N2CCCCC2)cc1C`, under setting [1], the AC50 is 5.8 µM [falling, partial curve, poor fit].

`COc1cccc(N/C(SC)=C(/C#N)C(N)=O)c1`: the AC50 under setting [1] is 35.5 µM [falling, single point].

As for `Cc1cc(F)ccc1S(=O)(=O)Nc1ccccc1C(=O)Nc1ccccc1-c1nc2ccccc2[nH]1`, the AC50 under setting [1] was 29.1 µM [falling, single point].

In the case of `O=C(c1cc(-c2ccc(O)cc2)on1)N1CCCCCC1`, the AC50 under setting [1] is 6.31 µM [falling, partial curve].

Take `NNC(=O)c1ccc(O)cc1O`: the AC50 under setting [1] is 16.4 µM [falling, partial curve].

On to `CCCc1cc(=O)n2[nH]c(-c3ccc(Cl)cc3)cc2n1`, for which the AC50 under setting [1] is 6.31 µM [falling, partial curve].

Consider `Cc1c(NC(=S)N/N=C/c2ccc([N+](=O)[O-])cc2O)c(=O)n(-c2ccccc2)n1C`, for which, under setting [1], the AC50 is 0.355 µM [falling, partial curve, poor fit].

Turning to `O=C(CCc1nnc2ccc(NCc3ccccc3Cl)nn12)NC1CCCC1`, the AC50 under setting [1] was 4.47 µM [rising, partial curve, poor fit].

For `CC(=O)Oc1ccc(/C=C2/CCc3ccccc3C2=O)cc1`, the AC50 under setting [1] is 10 µM [falling, partial curve].

On to `O=C(O)C1(NS(=O)(=O)c2ccc(F)c(Cl)c2)CCCCC1`, for which the AC50 under setting [1] was 25.9 µM [rising, single point].

Regarding `CCOC(=O)c1c(C)oc2cc(Br)c(O)c(Br)c12`, the AC50 under setting [1] was 29.1 µM [rising, single point].

On to `O=C(c1ccc(C(F)(F)F)cc1)C1CCCN(C(=O)CN2C(=O)CSC2=O)C1` (stereo not given), for which the concentration at half-maximal activity (AC50) under setting [1] is 17.8 µM [rising, partial curve, poor fit].

Take `CCOc1ccc2nc(SC(C)C(N)=O)[nH]c2c1` (stereo not given): the AC50 under setting [1] is 10 µM [rising, partial curve].

`CCCCCCc1c(O)nc(SCC(=O)O)[nH]c1=O`: under setting [1], the AC50 was 23.1 µM [falling, single point].

Regarding `CN1/C(=C\C=N\NC(=O)c2ccccc2Br)C(C)(C)c2ccccc21`, the AC50 under setting [1] was 23.1 µM [falling, single point].

Take `Cc1c(-n2c(=O)n(Cc3ccccc3)c(=O)c3[nH]cnc32)cccc1S(C)=O` (stereo not given): under setting [1], the AC50 was 25.1 µM [rising, single point].

Consider `C=CCOc1ccc2c(CC)cc(=O)oc2c1C`, for which the AC50 under setting [1] is 4.11 µM [rising, full curve, poor fit].

For `COc1cccc(CNC(=O)C2CCN(S(=O)(=O)N3CCC4(CC3)OCCO4)CC2)c1`, the AC50 under setting [1] is 20.6 µM [rising, partial curve, poor fit].

Turning to `CCOC(=O)c1c(C=O)c(C)n(Cc2ccc(C)cc2)c1C`, the AC50 under setting [1] was 29.1 µM [falling, single point].

With `Cn1c(=O)c2c(ncn2CC(=O)NC[C@H]2O[C@@H](n3cnc4c(N)ncnc43)[C@H](O)[C@@H]2O)n(C)c1=O`, the AC50 runs as follows: under setting [1], 16.4 µM [rising, partial curve]; under setting [2], 29.1 µM [falling, single point].

With `C[C@@]12C(=O)N(CCO)CC(=O)N1[C@H](/C=C/c1ccccc1)[C@@H]1C(=O)N(c3ccccc3)C(=O)[C@@H]12`, the AC50 under setting [1] was 1.41 µM [falling, partial curve, poor fit].

In the case of `CCCCC(NC(=O)Cc1c(C)c2cc3c4c(oc3cc2oc1=O)CCCC4)C(=O)O` (stereo not given), the AC50 under setting [1] was 35.5 µM [falling, single point].

For `CCOc1ccccc1NC(=O)C(CC)Sc1nc2ccsc2c(=O)n1CCC(=O)O` (stereo not given), under setting [1], the AC50 was 20 µM [rising, partial curve, poor fit].

With `COc1ccc(-c2nc3ccccn3c2NC2CCCCC2)cc1SC1CCCCC1`, the AC50 under setting [1] was 13 µM [falling, partial curve].

Regarding `FC(F)Sc1ccc(NC(=S)NCC2CCCCC2)cc1`, the AC50 under setting [1] was 29.1 µM [falling, single point].

Turning to `COc1ccc(Nc2nc(N3CCCCC3)nc3ccccc23)c(OC)c1`, the concentration at half-maximal activity (AC50) under setting [1] was 13 µM [rising, partial curve, poor fit].

For the compound `CC1CC2=C(NC(=S)NC2c2cccc(F)c2)/C(=C/c2cccc(F)c2)C1` (stereo not given), the AC50 under setting [1] is 15.8 µM [falling, single point].

In the case of `COc1ccc(/C=C2/C(=O)C(C)(C(C)C)CCC2C)cc1` (stereo not given), the AC50 under setting [1] is 0.708 µM [falling, partial curve, poor fit].

In the case of `CC(=O)Nc1ccc(/C=C/c2nc(-c3ccccc3O)n[nH]2)cc1`, under setting [1], the AC50 is 1.41 µM [falling, partial curve, poor fit].

As to `CC(C)n1cc(/C=N/Nc2ccc(C(=O)O)cc2)c2ccccc21`, the AC50 under setting [2] was 3.16 µM [rising, full curve, poor fit].

Regarding `C=CCn1cccc(C(=O)Nc2ccc(OCC)cc2)c1=O`, the AC50 under setting [1] is 35.5 µM [falling, single point].

As to `CCC(=O)OC1CC(C)N(C(=O)c2ccccc2)c2ccc(C)cc21` (stereo not given), under setting [1], the AC50 was 0.82 µM [rising, full curve, poor fit].

Take `O=C(CCl)N1CCN2C(=O)c3ccccc3C12c1ccc(Cl)cc1` (stereo not given): the AC50 under setting [1] is 11.2 µM [falling, partial curve].

On to `CCc1ccc(Nc2nnc(SCC(=O)Nc3ccc(C(=O)O)cc3)s2)cc1`, for which the AC50 under setting [1] was 22.4 µM [falling, single point].

With `COc1cccc2[nH]c3c(N4CCc5ccccc5C4)ncnc3c12`, under setting [1], the AC50 was 1.58 µM [falling, full curve].

Regarding `Cc1sc2ncnc(N3CCC(C(=O)Nc4ccc(F)cc4Cl)CC3)c2c1C`, under setting [1], the AC50 is 14.6 µM [falling, single point].

Regarding `CCc1cc(=O)oc2cc(C)cc(OC(C)C(=O)NCCN3CCOCC3)c12` (stereo not given), the AC50 under setting [1] is 22.4 µM [falling, partial curve, poor fit].

With `O=C(/C=C\c1ccco1)Oc1cccc2cccnc12`, under setting [2], the AC50 is 35.5 µM [falling, single point].

`CCc1ccc(-n2c(C)nc3cc(C(=O)NCc4cccnc4)ccc32)cc1`: the AC50 under setting [1] is 10 µM [falling, partial curve].

For `CN(C)S(=O)(=O)c1cccc(NC(=O)CSc2ncnc3ccccc23)c1`, under setting [1], the AC50 was 22.4 µM [falling, partial curve, poor fit].

For the compound `COc1cc(OC)cc(-c2cc3nc(C)c(CCC(=O)O)c(C)n3n2)c1`, under setting [1], the AC50 was 2.31 µM [falling, full curve, poor fit].

Regarding `COc1ccc(-c2cnc(SCC(=O)Nc3ccc4c(c3)OCO4)n2Cc2ccco2)cc1`, the AC50 under setting [1] was 4.11 µM [falling, full curve, poor fit].

For the compound `COc1ccc(-c2csc(NC(=O)c3ccccc3C(=O)O)n2)cc1`, under setting [1], the AC50 was 25.1 µM [falling, single point].

Regarding `O=C(CN1CCN(C2CCCCC2)CC1)c1ccc2cc[nH]c2c1`, the AC50 under setting [1] was 2.59 µM [falling, partial curve, poor fit].

As to `Cc1csc(NC(=O)c2cnc3ccccc3n2)n1`, the AC50 under setting [1] was 8.91 µM [falling, partial curve, poor fit].

With `Nc1nn2c(-c3ccccc3)cc(=O)[nH]c2c1N=Nc1ccc(O)cc1`, the AC50 under setting [1] was 2 µM [falling, full curve].
